# Among all 400,000 compounds or so, about 13,000 (3.2%) were called active. The shares of active, inactive and inconclusive entries below differ from those in the screen. Calls follow the shape of the dose curve; as a rule, active = well fitted cell-killing curve with a large enough effect; inconclusive = small, poorly fitted or top-dose-only effect, or effect the other way; inactive = flat fitted curve, though single readings scatter. Where the call is inconclusive, the potency comes from a doubtful curve fit.
# Experiment: qHTS assay for MDR1-selective chemotherapeutics: Primary screen using the drug-selected MDR subline cells KB-V1; also: nearly all actives have a fitted effect of over 60% in size
# Conditions: KB-V1 MDR cells viability, CellTiter-Glo, 72 h; series mostly up to 46.1 µM
# How it was run: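 In this primary screen, KB-V1 cells overexpressing P-gp are incubated with library compounds (lowest to highest concentration) for 72 h at 37 degrees C before a luminescent ATP viability read.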
# Potency is read from the fitted curve at half-maximal effect.
row,Structure (SMILES),Potency
1,CCCCCCC(=O)NNC(=O)c1c(O)c2ccccc2n(CCC)c1=O,"inconclusive: 29.1 µM [cytotoxic, single point]"
2,COc1ccc(C2c3ccc4ccccc4c3Oc3ncn4nc(Cc5ccccc5)nc4c32)cc1OC (stereo not drawn),inactive
3,COc1cc(C(=O)NCC(=O)N/N=C/c2cccnc2)cc(OC)c1OC,"inconclusive: 25.9 µM [rising, single point]"
4,Cc1nc(SCc2ccccc2F)c2oc3ccccc3c2n1,"inconclusive: 32.6 µM [cytotoxic, single point]"
5,Cc1cc(NC(=O)CSc2ccc3nnc(-c4ccc(Cl)cc4)n3n2)no1,"inconclusive: 23.1 µM [cytotoxic, partial curve, poor fit]"
6,CCC(=O)Nc1nn(C)c2nc3c(C)cccc3cc12,inactive
7,CC(=O)N1CCc2cc(C(=O)CN3CCN(c4ccccc4F)CC3)ccc21,"inconclusive: 29.1 µM [rising, single point]"
8,COc1cc(OCc2ccccc2)c2c(CCC(=O)O)cc(=O)oc2c1,"inconclusive: 18.4 µM [cytotoxic, partial curve, poor fit]"
9,Cc1ccc(-n2c(C)cn(C(=O)c3ccccc3)c2=S)cc1,"inconclusive: 23.1 µM [cytotoxic, partial curve]"
10,S=C(Nc1ccccc1Oc1ccccc1)NC1CCCC1,inactive
11,Cc1nnc(SCC(=O)NC(=O)NCc2ccco2)s1,"inconclusive: 11.6 µM [rising, single point]"
12,Cc1ccc(-c2c[n+](CC(=O)Nc3ccc(C)cc3C)c3n2CCC3)cc1,"inconclusive: 5.8 µM [rising, full curve]"
13,O=C(CCc1nc2ccccc2c(=O)[nH]1)Nc1cc(Cl)ccc1N1CCCC1,active: 14.6 µM
14,Cn1c(=O)oc2cc(S(=O)(=O)N3CCCC(C(=O)N4CCc5ccccc5C4)C3)ccc21 (stereo not drawn),inactive
15,CC(=O)N1CCc2cc(S(=O)(=O)NC(CC(C)C)C(=O)N3CCn4c3nc3ccccc34)ccc21 (stereo not drawn),"inconclusive: 16.4 µM [cytotoxic, single point]"
16,Cc1cc(Cl)ccc1NC(=S)NCc1cccs1,"inconclusive: 18.4 µM [cytotoxic, single point]"
17,C[C@H]1CN([C@@H](C)CO)S(=O)(=O)c2ccc(C#CC3CC3)cc2O[C@H]1CN(C)C(=O)c1cccnc1,inactive
18,COc1ccc(NC(=O)Nc2nnc(-c3ccncc3)s2)cc1,"inconclusive: 7.31 µM [cytotoxic, partial curve, poor fit]"
19,CCCCN1C[C@H](C)[C@@H](CC(=O)Nc2ccc(OC)cc2)C1=O,"inconclusive: 16.4 µM [cytotoxic, partial curve]"
20,Cn1c(SCc2nc3ccccc3s2)nnc1-c1ccc2c(c1)OCO2,"inconclusive: 29.1 µM [cytotoxic, single point]"
21,O=C1C2CCCN2C(=O)N1CCN1CCN(c2ccccc2)CC1 (stereo not drawn),"inconclusive: 9.2 µM [cytotoxic, partial curve, poor fit]"
22,O=C(NC1CCS(=O)(=O)C1)c1sc2ccccc2c1Cl (stereo not drawn),"inconclusive: 29.1 µM [rising, single point]"
23,Cc1cc(C(=O)CCC(=O)N(C)CC(=O)Nc2c(Cl)cccc2Cl)c(C)s1,"inconclusive: 9.2 µM [cytotoxic, partial curve]"

row,Structure (SMILES),Potency
1,O=C(c1ccncc1)N1CCN(S(=O)(=O)c2cccc(F)c2)CC1,"inconclusive: 32.6 µM [rising, single point]"
2,COc1ccc(N2CCN(S(=O)(=O)c3cccc4nsnc34)CC2)cc1,"inconclusive: 23.1 µM [cytotoxic, single point]"
3,CC(=O)C1[C@H](N(C)C)CC2C3CC=C4CC(O)CC[C@]4(C)C3CC[C@@]21C (stereo partly drawn),"inconclusive: 29.1 µM [rising, single point]"
4,O=Cc1ccccc1OCc1nnsc1Cl,inactive
5,C[n+]1ccccc1COc1ccc(C(C)(C)C)cc1,"inconclusive: 29.1 µM [rising, single point]"
6,O=C(NCCNC(=O)c1ccc(-c2ccc(Cl)c(Cl)c2)o1)c1cnccn1,"inconclusive: 29.1 µM [cytotoxic, single point]"
7,OC(CON=C1c2ccccc2-c2ccccc21)CN1CCNCC1 (stereo not drawn),inactive
8,COc1cc(C(=O)Nc2ccc(C)cc2)c2ccccc2n1,"inconclusive: 23.1 µM [cytotoxic, partial curve, poor fit]"
9,Cc1ccc(Cl)cc1N1CCN(c2ncnc3c2nc2n3CCCCC2)CC1,"inconclusive: 14.6 µM [cytotoxic, single point]"
10,CC(C)(C)NC(=O)c1ccccc1NC(=O)C1CC(=O)N(C2CCCCC2)C1 (stereo not drawn),inactive
11,CCC(C)[C@@H](CN(N=O)[C@@H](Cc1ccccc1)CN(C)N=O)N(CCc1ccccc1)N=O (stereo partly drawn),"inconclusive: 20.6 µM [cytotoxic, single point]"
12,CCOC(=O)CNC(=O)CSc1nc(Cc2cccs2)nc2ccccc12,"inconclusive: 16.4 µM [cytotoxic, partial curve, poor fit]"
13,Cc1cc(C)c(S(=O)(=O)N2CCC(N3CCN(Cc4ccccc4)C(=O)C3=O)CC2)c(C)c1,"inconclusive: 6.51 µM [cytotoxic, partial curve, poor fit]"
14,Cc1cc(-n2c(C)cc(C(=O)CN3C(=O)NC4(CCCCCC4)C3=O)c2C)no1,"inconclusive: 13 µM [cytotoxic, partial curve, poor fit]"
15,COc1ccc(Cc2nnc(NC(=O)c3cccs3)s2)cc1OC,"inconclusive: 29.1 µM [cytotoxic, single point]"
16,Cc1occc1C(=O)NCCc1cccc(Cl)c1,"inconclusive: 25.9 µM [cytotoxic, partial curve]"
17,Clc1nnc2ccc(-c3ccccc3)nn12,active: 16.4 µM
18,CCOC(=O)C1=CCN(S(=O)(=O)c2ccccc2Cl)C1c1ccc(Cl)c(Cl)c1 (stereo not drawn),"inconclusive: 23.1 µM [cytotoxic, partial curve, poor fit]"
19,Cc1cccc(COCC(Cc2ccccc2)N2CCN(C(=O)c3ccc(Cl)c(Cl)c3)CCC2=O)c1 (stereo not drawn),"inconclusive: 29.1 µM [cytotoxic, single point]"
20,COc1ccc(CC(=O)OCC(=O)N2CCc3ccccc32)cc1OC,"inconclusive: 16.4 µM [cytotoxic, single point]"
21,CC1CN(C(=O)CN2C(=O)NC3(CCCC3)C2=O)C(=Nc2cccc(S(=O)(=O)N(C)C)c2)S1 (stereo not drawn),"inconclusive: 20.6 µM [cytotoxic, partial curve, poor fit]"
22,CN(C1CCCCC1)C(CNS(=O)(=O)c1ccc(Cl)cc1)c1ccccc1 (stereo not drawn),"inconclusive: 2.59 µM [cytotoxic, full curve, poor fit]"
23,COc1ccc(CCNS(=O)(=O)c2ccc(S(=O)(=O)N3CCCC3)cc2)cc1OC,"inconclusive: 13 µM [cytotoxic, partial curve, poor fit]"

# An excerpt of these results, as tab-separated lines:
row	Structure (SMILES)	Potency
14	Cc1cc(-n2c(C)cc(C(=O)CN3C(=O)NC4(CCCCCC4)C3=O)c2C)no1	inconclusive: 13 µM [cytotoxic, partial curve, poor fit]
15	COc1ccc(Cc2nnc(NC(=O)c3cccs3)s2)cc1OC	inconclusive: 29.1 µM [cytotoxic, single point]

# Next part.

row,Structure (SMILES),Potency
1,c1ccc2c(c1)CCc1c-2nc2ccccc2c1N1CCOCC1,inactive
2,CCOc1ccc(CN(CCO)CCO)cc1C(=O)OC,"inconclusive: 11.6 µM [rising, partial curve]"
3,Cc1ccc(C(=O)/C=C/N(C)C)o1,inactive
4,CCN(Cc1ccccc1)C(=O)c1cc(S(=O)(=O)N2CCOCC2)ccc1N1CCCC1,"inconclusive: 6.51 µM [cytotoxic, partial curve]"
5,COC(=O)c1sc(=S)sc1C(=O)OC,inactive
6,CCN(CC(=O)Nc1ccc(OC)cc1)C(=O)CSCc1ccc(C)cc1,"inconclusive: 29.1 µM [cytotoxic, single point]"
7,CCc1cccc(NC(=O)Nc2cccs2)c1,"inconclusive: 29.1 µM [cytotoxic, single point]"
8,O=S(=O)(Nc1ccccn1)c1ccc(C(F)(F)F)cc1Cl,inactive
9,COc1cc2ccccc2ccc1=NO,active: 16.4 µM
10,COc1ccccc1N1CCN(C(CNC(=O)C(=O)NCc2ccc(F)cc2)c2cccnc2)CC1 (stereo not drawn),inactive
11,O=C(NC1=NCCS1)c1cccc(N2C(=O)c3ccccc3C2=O)c1,"inconclusive: 16.4 µM [rising, single point]"
12,O=C1CCc2cc(S(=O)(=O)NC(C(=O)NCc3cccnc3)c3ccccc3)ccc2N1 (stereo not drawn),"inconclusive: 29.1 µM [rising, single point]"
13,COc1ccc(N(C(=O)CCl)C(C(=O)NC2CCCCC2)c2cccnc2)cc1 (stereo not drawn),active: 20.6 µM
14,CCC(C)Sc1cccc(-c2nc3ccccn3c2NCc2ccccc2)c1 (stereo not drawn),"inconclusive: 14.6 µM [cytotoxic, partial curve, poor fit]"
15,CC1SCCN1S(=O)(=O)c1ccc2ccccc2c1 (stereo not drawn),inactive
16,Cc1cc(=O)oc2cc(OCC(=O)NC3CCCCC3)ccc12,inactive
17,CCOC(=O)c1cc2sccc2n1CC(=O)N1c2ccccc2CC1C (stereo not drawn),"inconclusive: 18.4 µM [cytotoxic, single point]"
18,CCNC(=O)N(C)C[C@H]1N[C@@](Cc2ccccc2)(C(=O)OC)[C@H]2C(=O)N(C)C(=O)[C@@H]12,"inconclusive: 18.4 µM [rising, single point]"
19,C/C(=N\NC(=O)c1ccc(Cl)cc1)c1ccccn1,"inconclusive: 0.231 µM [cytotoxic, full curve, poor fit]"
20,CCOc1cc(C(=O)OCC(=O)N(C)c2ccccc2)cc(OCC)c1OCC,"inconclusive: 4.11 µM [cytotoxic, full curve]"
21,COc1cccc(CNc2nc(NCC3CC3)nc3ccsc23)c1OC,"inconclusive: 23.1 µM [cytotoxic, single point]"
22,COc1cc(CNc2nc(C)c([N+](=O)[O-])c(C)c2C#N)cc(OC)c1OC,"inconclusive: 23.1 µM [cytotoxic, single point]"

# Exported bar-delimited: 3 of the compounds above
row | Structure (SMILES) | Potency
17 | CCOC(=O)c1cc2sccc2n1CC(=O)N1c2ccccc2CC1C (stereo not drawn) | inconclusive: 18.4 µM [cytotoxic, single point]
18 | CCNC(=O)N(C)C[C@H]1N[C@@](Cc2ccccc2)(C(=O)OC)[C@H]2C(=O)N(C)C(=O)[C@@H]12 | inconclusive: 18.4 µM [rising, single point]
19 | C/C(=N\NC(=O)c1ccc(Cl)cc1)c1ccccn1 | inconclusive: 0.231 µM [cytotoxic, full curve, poor fit]

# Reference: PubChem BioAssay AID1347076 (National Center for Advancing Translational Sciences (NCATS), 2019)
